Results deposited as PubChem BioAssay AID1259308 (NCATS, 2017)
The deposit covers about 59,000 reagents; this is a random part of them. In the full data, about 1,510 (2.6%) are marked active. 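Calls use total luciferase alone and ignore viability, so some active siRNAs may act by altering cell number.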 Entries without a mark were called inactive. The numbers tell different reagents against one gene apart. Not all columns of the deposit are shown.

Assay: 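Candidate targets for better recombinant protein yield in mammalian cells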 (primary screen)
Cells: human HEK293 embryonic kidney cells stably expressing firefly luciferase (HEK-CMV-Luc2-Hygro)
Knock-down reagent: single siRNA against human genes, 0.8 pmol siRNA per well
Time to read-out: 72 h
Measurement: 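Luciferase light (ONE-Glo) measured on one replicate plate set and viability (CellTiter-Glo) on the other, scaled to a negative control siRNA, with robust z-scores and luciferase per cell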
Reading the numbers: total luciferase, z-score and total luciferase, % of control: higher = more reporter protein produced
Call rule: 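Active when the median/MAD z-score for overall luciferase is greater than 3; a gene was taken forward for validation with new siRNAs if at least two of its three siRNAs passed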
Meaning of the calls: active = raised luciferase; inactive = no rise

NEUROD4 #1 → total luciferase, z-score: -1.01; total luciferase, % of control: 61.8
NEUROD4 #2 → total luciferase, z-score: 0.715; total luciferase, % of control: 96.1
NEUROD4 #3 → total luciferase, z-score: -1.83; total luciferase, % of control: 45.5
MB21D2 #1 → total luciferase, z-score: -1.16; total luciferase, % of control: 58.9
MB21D2 #2 → total luciferase, z-score: -1.02; total luciferase, % of control: 61.6
MB21D2 #3 → total luciferase, z-score: -0.213; total luciferase, % of control: 77.7
TMPRSS11A #1 → total luciferase, z-score: 0.535; total luciferase, % of control: 92.5
TMPRSS11A #2 → total luciferase, z-score: 0.494; total luciferase, % of control: 91.7
TMPRSS11A #3 → total luciferase, z-score: -0.518; total luciferase, % of control: 71.6
PABPN1L #1 → total luciferase, z-score: -1.21; total luciferase, % of control: 57.9
PABPN1L #2 → total luciferase, z-score: 2.14; total luciferase, % of control: 124
PABPN1L #3 → total luciferase, z-score: -1.52; total luciferase, % of control: 51.7
OR5F1 #1 → total luciferase, z-score: -0.671; total luciferase, % of control: 68.5
OR5F1 #2 → total luciferase, z-score: -0.729; total luciferase, % of control: 67.4
OR5F1 #3 → total luciferase, z-score: -0.297; total luciferase, % of control: 76
CACNG3 #1 → total luciferase, z-score: -0.775; total luciferase, % of control: 66.5
CACNG3 #2 → total luciferase, z-score: -0.68; total luciferase, % of control: 68.4
CACNG3 #3 → total luciferase, z-score: -0.276; total luciferase, % of control: 76.4
ISY1 #1 → total luciferase, z-score: 2.76; total luciferase, % of control: 137
ISY1 #2 → total luciferase, z-score: 0.242; total luciferase, % of control: 86.7
ISY1 #3 → total luciferase, z-score: 2.9; total luciferase, % of control: 140

An excerpt from above, showing only “total luciferase, z-score”:
TMPRSS11A #1	0.535
TMPRSS11A #2	0.494
TMPRSS11A #3	-0.518
